Data published in the supplement of paper PMC10382679.
Single values of this set are uncertain.

B1: Rpb7; numbered along this chain (parent)
chain: MFFIKDLSLNITLHPSFFGPRMKQYLKTKLLEEVEGSCTGKFGYILCVLDYDNIDIQRGRILPTDGSAEFNVKYRAVVFKPFKGEVVDGTVVSCSQHGFEVQVGPMKVFVTKHLMPQDLTFNAGSNPPSYQSSEDVITIKSRIRVKIEGCISQVSSIHAIGSIKEDYLGAI

Columns and labels:
[1] = variants of: B1; experiment: log2 fold change of mutant abundance, UV-irradiated vs unirradiated; higher = more UV resistant (enriched after UV); settings: with Saccharomyces cerevisiae rad7Δ rad26Δ; UV dose (J/m2): 10; genetic background: rad7Δ rad26Δ rpb7Δ + plasmid RPB7 library; outgrowth: 10 cell divisions
[2] = variants of: B1; experiment: NOISeq theta enrichment statistic, UV-irradiated vs unirradiated (dimensionless); higher = more UV resistant (enriched after UV); settings: with Saccharomyces cerevisiae rad7Δ rad26Δ; UV dose (J/m2): 10; genetic background: rad7Δ rad26Δ rpb7Δ + plasmid RPB7 library; outgrowth: 10 cell divisions

| Variant | log2 fold change of mutant abundance [1] | NOISeq theta enrichment statistic [2] |
| --- | --- | --- |
| MFFIKDLSLNITLHPSFFGPRMKQYLKTKLLEEVEGSCTGKFGYILCVLDYDNIDIQRGRILPTDGSAEFNVKYRAVVFKPFKGEVVDGTVVSCSQHGFEVQVGPMKVFVTKHLMPQDLTFNAGSNPPSYQSSYDVITIKSRIRVKIEGCISQVSSIHAIGSIKEDYLGAI | -0.799 | -0.391 |
| MFFIKDLSLNITLHPSFFGPRMKQYLKTKLLEEVEGSCTGKFGYILCVLDYDNIDIQRGRILPTDGSAEFNVKYRAVVFKPFKGQVVDGTVVSCSQHGFEVQVGPMKVFVTKHLMPQDLTFNAGSNPPSYQSSEDVITIKSRIRVKIEGCISQVSSIHAIGSIKEDYLGAI | -0.0521 | -0.0735 |
| MFFIKDLSLNITLHPSFFGPRMKQYLKTKLLEEVEGSCTGKFGYILCVLDYDNIDIQRGRILPTDGSAEFNVKYRAVVFKPFKGEVVDGTVVSCSQHGFEVQVGPMKVFVTKHLMPQDLTPNAGSNPPSYQSSEDVITIKSRIRVKIEGCISQVSSIHAIGSIKEDYLGAI | 1.06 | 0.608 |
| MFFIKDLSLNITLHPSFFGPRMKQYLKTKLLEEVEGSCTGKFGYILCVLDYDNIDIQRGRILPTDGSAEFNVKYRAVVFKPFKGEVVDGTVVSCSQHGFEVQVGPMKVFVTKHLMPQDLTFNSGSNPPSYQSSEDVITIKSRIRVKIEGCISQVSSIHAIGSIKEDYLGAI | 0.0688 | 0.215 |
| MFFIKDLSLNITLHPSFFGPRMKQYLKTKLLEEVEGSCTGKFGYILCVLDYDNIDIQIGRILPTDGSAEFNVKYRAVVFKPFKGEVVDGTVVSCSQHGFEVQVGPMKVFVTKHLMPQDLTFNAGSNPPSYQSSEDVITIKSRIRVKIEGCISQVSSIHAIGSIKEDYLGAI | 0.219 | 0.119 |
| MFFIKDLSLNITLHPSFFGPRMKQYLKTKLLEEVEGSCTGKFGIILCVLDYDNIDIQRGRILPTDGSAEFNVKYRAVVFKPFKGEVVDGTVVSCSQHGFEVQVGPMKVFVTKHLMPQDLTFNAGSNPPSYQSSEDVITIKSRIRVKIEGCISQVSSIHAIGSIKEDYLGAI | -0.0362 | -0.0371 |
| MFFIKDLSLNITLHPSFFGPRMKQYLKTKLLEEVEGSCTGKFGHILCVLDYDNIDIQRGRILPTDGSAEFNVKYRAVVFKPFKGEVVDGTVVSCSQHGFEVQVGPMKVFVTKHLMPQDLTFNAGSNPPSYQSSEDVITIKSRIRVKIEGCISQVSSIHAIGSIKEDYLGAI | 0.424 | 0.939 |
| MFFIKDLSLNITLHPSFFGPRMKQYLKTKLLEEVEGSCTGKFGYILCVLDYDNIDIQRGRILPTDGSAEFNVKYRAVVFKPFKGEVVDGTVVSCSQHGFEVQVGPMKVFVTKHLMPQDLTFNAWSNPPSYQSSEDVITIKSRIRVKIEGCISQVSSIHAIGSIKEDYLGAI | 0.186 | 0.139 |
| MFFIKDLSLNITLYPSFFGPRMKQYLKTKLLEEVEGSCTGKFGYILCVLDYDNIDIQRGRILPTDGSAEFNVKYRAVVFKPFKGEVVDGTVVSCSQHGFEVQVGPMKVFVTKHLMPQDLTFNAGSNPPSYQSSEDVITIKSRIRVKIEGCISQVSSIHAIGSIKEDYLGAI | -0.154 | -0.276 |
